Results from PMC8424950.

How the values were obtained:
KDELR1-mCherry (human) [1] = target: T1, KDELR1-mCherry (human) (UniProt P24390); assay: co-IP; HeLa co-transfected with KDELR1-mCherry and hGH-GFP-myc or hGH-GFP-myc-KDEL, treated with DSP crosslinker (2 mM) in PBS at 37 °C for 30 min before lysis; anti-RFP agarose beads; western blot
T1 sequence: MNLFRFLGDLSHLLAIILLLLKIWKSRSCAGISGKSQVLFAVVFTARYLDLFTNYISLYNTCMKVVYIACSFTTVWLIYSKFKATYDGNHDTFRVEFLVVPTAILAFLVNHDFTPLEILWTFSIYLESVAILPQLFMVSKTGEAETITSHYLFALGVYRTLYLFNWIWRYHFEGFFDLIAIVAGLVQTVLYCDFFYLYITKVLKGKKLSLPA

KDELR1-mCherry (human) [2] = target: T1, KDELR1-mCherry (human); assay: co-IP; anti-RFP agarose beads, 4 h at 4°C, on lysates (20 mM HEPES pH 7.4, 100 mM NaCl, 2 mM DDM + 0.02% CHS) of HeLa cells with KDELR1-mCherry or endogenously tagged KDELR1-3xFlag-mCherry; western blot; also done with ACBD3-depleted, ACBD3-KO and ACBD3 over-expressing cells

binding (KDELR1-mCherry (human) [1]) | binding (KDELR1-mCherry (human) [2]) | Substance
binds | binds | γ-COP (endogenous) (human (endogenous in HeLa))
binds | binds | p24 (endogenous) (human (endogenous in HeLa))

Results are given in words; binding and its absence hold for the method and conditions named. In cells and extracts the contact can be indirect. Binding can be weak; no strength is given.
